Results on two substances are retold here after article PMC11274521 (Cells, 2024).

By UniProt entry, the sequences of proteins in these tests, tags left out. Residues count along the entry.
UniProt P02769, residues 25-607: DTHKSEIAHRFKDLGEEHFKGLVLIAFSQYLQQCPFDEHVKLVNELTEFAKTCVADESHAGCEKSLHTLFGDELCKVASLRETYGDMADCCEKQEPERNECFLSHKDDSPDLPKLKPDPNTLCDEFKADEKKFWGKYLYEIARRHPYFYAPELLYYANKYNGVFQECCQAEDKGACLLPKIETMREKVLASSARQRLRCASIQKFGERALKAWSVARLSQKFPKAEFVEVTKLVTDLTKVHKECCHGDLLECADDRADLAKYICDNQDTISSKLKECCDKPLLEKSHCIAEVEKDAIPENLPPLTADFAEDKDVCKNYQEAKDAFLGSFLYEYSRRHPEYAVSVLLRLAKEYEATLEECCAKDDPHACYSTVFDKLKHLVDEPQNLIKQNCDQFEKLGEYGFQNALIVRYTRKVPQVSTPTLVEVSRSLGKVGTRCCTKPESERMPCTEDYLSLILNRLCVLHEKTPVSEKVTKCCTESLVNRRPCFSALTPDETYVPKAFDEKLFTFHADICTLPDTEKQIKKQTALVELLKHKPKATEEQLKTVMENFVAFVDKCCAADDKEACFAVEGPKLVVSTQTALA
UniProt P02768, residues 25-609: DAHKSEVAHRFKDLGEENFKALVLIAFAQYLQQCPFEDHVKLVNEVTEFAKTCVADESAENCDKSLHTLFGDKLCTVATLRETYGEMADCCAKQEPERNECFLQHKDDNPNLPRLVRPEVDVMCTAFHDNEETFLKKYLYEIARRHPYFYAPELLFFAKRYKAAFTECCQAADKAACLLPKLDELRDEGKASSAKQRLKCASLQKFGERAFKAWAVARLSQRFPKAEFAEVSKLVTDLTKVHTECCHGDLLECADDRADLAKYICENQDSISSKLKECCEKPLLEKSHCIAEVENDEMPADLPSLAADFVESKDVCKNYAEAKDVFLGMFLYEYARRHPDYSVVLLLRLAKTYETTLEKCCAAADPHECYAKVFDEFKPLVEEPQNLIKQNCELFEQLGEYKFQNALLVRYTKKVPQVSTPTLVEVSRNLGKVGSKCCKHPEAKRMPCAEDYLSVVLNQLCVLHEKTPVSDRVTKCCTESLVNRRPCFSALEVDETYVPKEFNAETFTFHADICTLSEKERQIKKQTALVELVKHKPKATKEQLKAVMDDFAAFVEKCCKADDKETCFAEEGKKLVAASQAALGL

For test [1], the target named is T1, Biotin-L7N (human).
T1 sequence (peptide, biotin-ahx at the N-terminus): REEKLFNVTSNLRINT
Nature of the test: pull-down; 1 mM biotinylated peptide with 0.03 mM albumin (HSA or BSA) for 2 h at 4 °C, then Streptavidin resin for 1 h at room temperature; bound albumin detected by SDS-PAGE; both purified.

Test [2] deals with T1, Biotin-L7N (human). Nature of the test: condition: 1 mM peptide, FBS equivalent to 0.03 mM albumin; pull-down; 1 mM biotinylated peptide with FBS (amount equivalent to 0.03 mM albumin) for 2 h at 4 °C, then Streptavidin resin for 1 h at room temperature; bound albumin detected by SDS-PAGE; only the target purified.

These are yes or no findings as the source states them, for the method shown. For part of these data: Binding seen in cells or lysates may run through a third protein.

Take “bovine serum albumin (from UniProt P02769 25-607)”: the binding entry with Biotin-L7N (human) [1] is on record as “no binding (tested: 1 mM peptide, 0.03 mM albumin)”; with Biotin-L7N (human) [2] it was “no binding”.
Take “human serum albumin (from UniProt P02768 25-609)”: the binding entry with Biotin-L7N (human) [1] is listed as “no binding (tested: 1 mM peptide, 0.03 mM albumin)”.
